Assay [1] has as its target T1, murine ST2-Fc fusion protein (R&D Systems) (murine) (UniProt P14719).
T1 sequence (looked up): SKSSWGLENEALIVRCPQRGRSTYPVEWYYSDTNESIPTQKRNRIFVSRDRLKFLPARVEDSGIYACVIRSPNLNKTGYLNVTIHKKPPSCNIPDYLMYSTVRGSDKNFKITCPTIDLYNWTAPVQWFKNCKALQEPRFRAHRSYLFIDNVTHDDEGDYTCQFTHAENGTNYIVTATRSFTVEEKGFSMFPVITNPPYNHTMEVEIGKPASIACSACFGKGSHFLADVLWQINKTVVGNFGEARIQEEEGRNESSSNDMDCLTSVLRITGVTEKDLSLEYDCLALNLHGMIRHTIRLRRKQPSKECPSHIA
Briefly: receptor-ligand complex ELISA: IL-33 titrated onto coated ST2-Fc with his6-IL-1RAcP present; the readout is captured his6-IL-1RAcP (ternary complex). For orientation: ELISA stands for enzyme-linked immunosorbent assay.

Assay [2] has as its target T2, complex of plate-bound murine ST2-Fc and murine IL-33 (murine) (UniProt P14719+Q8BVZ5).
T2 sequence (looked up) 1: T1 sequence (looked up)
T2 sequence (looked up) 2: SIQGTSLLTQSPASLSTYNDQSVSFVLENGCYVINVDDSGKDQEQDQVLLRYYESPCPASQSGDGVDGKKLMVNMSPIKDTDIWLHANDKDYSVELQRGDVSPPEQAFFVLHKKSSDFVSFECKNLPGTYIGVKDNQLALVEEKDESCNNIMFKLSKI
The assay is described as follows: receptor-ligand complex ELISA: ST2-Fc coated, his6-IL-1RAcP 3 ug/ml in solution, IL-33 titrated, anti-his6-peroxidase detection.

For assay [3], the target named is T2, complex of plate-bound murine ST2-Fc and murine IL-33 (murine). The assay is described as follows: receptor-ligand complex ELISA, ST2 immobilized on the plate (FIG. 8A).

The values below come from US8187596.

These are yes or no findings as the source states them, for the method shown. Some entries that bind do so weakly or less than the wild type. Tags and fused reporters may be left off the sequences shown.

B1: murine IL-33 (ligand, UniProt Q8BVZ5 109-266, looked up)
chain: T2 sequence (looked up) 2
Turning to B1, the binding result in assay [1] is “binds”.

B2: recombinant his6-tagged murine IL-1RAcP (receptor, UniProt Q61730 21-367, looked up, not shown: small tags and cut ends)
chain: SERCDDWGLDTMRQIQVFEDEPARIKCPLFEHFLKYNYSTAHSSGLTLIWYWTRQDRDLEEPINFRLPENRISKEKDVLWFRPTLLNDTGNYTCMLRNTTYCSKVAFPLEVVQKDSCFNSAMRFPVHKMYIEHGIHKITCPNVDGYFPSSVKPSVTWYKGCTEIVDFHNVLPEGMNLSFFIPLVSNNGNYTCVVTYPENGRLFHLTRTVTVKVVGSPKDALPPQIYSPNDRVVYEKEPGEELVIPCKVYFSFIMDSHNEVWWTIDGKKPDDVTVDITINESVSYSSTEDETRTQILSIKKVTPEDLRRNYVCHARNTKGEAEQAAKVKQKVIPPRYTVELACGFGAT
Regarding B2, the binding entry in assay [2] and in assay [3] was “binds” throughout.
